Usually IC50 stands for the concentration at which inhibition is half-maximal.

Protein sequences, listed by entry. Tags and fused reporters are not part of them.
UniProt Q12908, whole entry: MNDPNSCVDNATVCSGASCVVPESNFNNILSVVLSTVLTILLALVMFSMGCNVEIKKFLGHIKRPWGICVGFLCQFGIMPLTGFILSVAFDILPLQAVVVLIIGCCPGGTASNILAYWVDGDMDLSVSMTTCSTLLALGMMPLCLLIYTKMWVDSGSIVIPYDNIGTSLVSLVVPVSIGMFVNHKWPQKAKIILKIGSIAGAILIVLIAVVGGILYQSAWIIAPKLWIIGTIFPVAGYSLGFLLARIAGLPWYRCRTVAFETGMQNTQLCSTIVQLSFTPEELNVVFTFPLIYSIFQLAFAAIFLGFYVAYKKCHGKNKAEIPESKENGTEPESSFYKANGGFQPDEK
UniProt Q14973, whole entry: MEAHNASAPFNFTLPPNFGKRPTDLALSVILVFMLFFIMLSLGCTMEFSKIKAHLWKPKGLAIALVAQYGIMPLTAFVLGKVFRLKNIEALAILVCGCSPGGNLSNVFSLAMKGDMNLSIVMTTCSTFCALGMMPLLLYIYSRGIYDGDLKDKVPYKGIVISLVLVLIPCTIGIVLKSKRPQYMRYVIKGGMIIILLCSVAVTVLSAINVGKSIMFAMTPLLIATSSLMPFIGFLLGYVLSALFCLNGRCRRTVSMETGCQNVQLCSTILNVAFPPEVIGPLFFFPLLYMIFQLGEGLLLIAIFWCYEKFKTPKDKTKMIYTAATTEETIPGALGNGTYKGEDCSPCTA

Certain results were filed several times, with different values. Only these are listed. The source may hold further records. The records of an entry do not match, cause unknown; some may be repeats, others may stem from another dose, organism or construct than stated. Some results are limits rather than exact numbers.

In assay [1] the target is T1, hIBAT (Homo sapiens, UniProt Q12908). In words: Inhibition of radiolabeled taurocholate uptake in hIBAT-transfected CHO cells. The following applies: read-out: hIBAT, IC50; Table 9; inhibition of tritiated taurocholate uptake, radiolabelled competition assay in transporter-expressing CHO cells. How it is done: (§1) CHO cells transfected with either the hIBAT or hLBAT transporter were seeded into 96-well microtiter plates at 100,000 cells/well in 100 μL DMEM containing 10% serum, glutamine and Penstrep. After overnight incubation the media was removed and test compound (25 μL) added at 2× the final desired concentration. Tritiated taurocholate (50,000 CPM/well) was diluted with cold substrate to a final concentration of 5 μM and 25 μL/well of this mixture was added to the plate. After incubating for 1 h at room temperature the solution was removed and the plate washed 4× with PBS at 4° C. 200 μL/well of scintillant is added and the plate then read in a Wallac microbeta counter. The inhibition data is processed by standard methods to calculate an inhibition constant IC50 for the test compound.

Another assay concerns the target hLBAT (Homo sapiens, UniProt Q14973). Nature of the assay: Inhibition of radiolabeled taurocholate uptake in hLBAT-transfected CHO cells. The following applies: read-out: hLBAT, IC50; Table 9; inhibition of tritiated taurocholate uptake, radiolabelled competition assay in transporter-expressing CHO cells. How it is done:
as §1

In assay [2] the target is T1, hIBAT. In words: Electrogenic transport in Xenopus oocytes expressing hIBAT (oocyte assay). As to conditions: Table 10; relative to glycodeoxycholic acid (GDC) in transporter-expressing oocytes, test sample concentration 100 μM. An excerpt: RNA preparation: Human IBAT and LBAT Transporter cDNAs were subcloned into a modified pGEM plasmid that contains 5′ and 3′ untranslated sequences from the Xenopus β-actin gene. These sequences increase RNA stability and protein expression. Plasmid cDNA was linearized and used as template for in vitro transcription (Epicentre Technologies transcription kit, 4:1 methylated:non-methylated GTP).
Xenopus oocyte isolation. Xenopus laevis frogs were anesthetized by immersion in Tricaine ([…] in deionized water) for 15 min. Oocytes were removed and digested in frog ringer solution (90 mM NaCl, 2 mM KCl, 1 mM MgCl2, 10 mM NaHEPES, pH 7.45, no CaCl2) with 1 mg/mL collagenase (Worthington Type 3) for 80-100 min with shaking. The oocytes were washed 6 times, and the buffer changed to frog ringer solution containing CaCl2 (1.8 mM). Remaining follicle cells were removed if necessary. Cells were incubated at 16° C., and each oocyte injected with […] RNA in 45 μL solution.
Electrophysiology measurements. Transport currents were measured 2-14 days after injection, using a standard two-electrode electrophysiology set-up (Geneclamp 500 amplifier, Digidata 1320/PCLAMP software and ADInstruments hardware and software were used for signal acquisition). Electrodes ([…]) were microfabricated using a Sutter Instrument puller and filled with 3M KCl. […]

In the case of `C[C@H](CCC(=O)NCC(=O)O)[C@H]1CC[C@H]2[C@@H]3CC[C@@H]4Cc5nc(-c6ccc(C(N)=O)cc6)ncc5C[C@]4(C)[C@H]3CC[C@]12C`, the IC50 at hIBAT [1] is > 300 µM and 140 µM; on hLBAT it was 20 µM and 2 µM.

For `C[C@H](CCC(=O)NCC(=O)O)[C@H]1CC[C@H]2[C@@H]3[C@H](O)C[C@@H]4Cc5[nH]ncc5C[C@]4(C)[C@H]3CC[C@]12C`, the “% Max GDC” value at hIBAT [2] is 21% and 8%.

Values taken from patent publication US7727976B2.
